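The test systems are human melanoma cell lines, treated with two drugs together for 72 h and then stained and imaged. Each value is the count of nuclei relative to DMSO-treated wells, in %, so that 100 equals the control. Concentrations were fixed for each drug; these are the higher of two levels. The file gives one value for each pair and line, without errors, so small differences may be noise.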
Only some of the drugs and lines screened are listed, without regard to their results.

First drug in all entries: MK-1775, 0.1 µM, C=CCn1c(=O)c2cnc(Nc3ccc(N4CCN(C)CC4)cc3)nc2n1-c1cccc(C(C)(C)O)n1

{"partner": "CCCCCCCCCCCC1=C(O)C(=O)C=C(O)C1=O at 6 µM", "COLO 800": 68.7, "WM3619": 39.3}
{"partner": "Cc1nc(Nc2ncc(C(=O)Nc3c(C)cccc3Cl)s2)cc(N2CCN(CCO)CC2)n1 at 0.02 µM", "COLO 800": 60.9, "WM3619": 47.0}
{"partner": "CN(NC(=O)CC(=O)NN(C)C(=S)c1ccccc1)C(=S)c1ccccc1 at 0.03 µM", "COLO 800": 11.0, "WM3619": 11.8}
{"partner": "Cc1ccc(Nc2nccc(N(C)c3ccc4c(C)n(C)nc4c3)n2)cc1S(N)(=O)=O at 2 µM", "COLO 800": 58.5, "WM3619": 48.7}
{"partner": "C/C(O)=C(\\C#N)C(=O)Nc1cc(Br)ccc1Br at 10 µM", "COLO 800": 65.8, "WM3619": 30.5}
{"partner": "Cc1cc(N2CCOCC2)cc2[nH]c(-c3c(NC[C@@H](O)c4cccc(Cl)c4)cc[nH]c3=O)nc12 at 1 µM", "COLO 800": 26.3, "WM3619": 45.6}
{"partner": "CS(=O)(=O)CCNCc1ccc(-c2ccc3ncnc(Nc4ccc(OCc5cccc(F)c5)c(Cl)c4)c3c2)o1 at 4 µM", "COLO 800": 64.4, "WM3619": 34.2}
{"partner": "COc1cc2ncnc(Nc3ccc(Oc4ccccc4)cc3)c2cc1OC at 10 µM", "COLO 800": 70.5, "WM3619": 35.1}
{"partner": "Cc1cc(SCc2sc(-c3ccc(C(F)(F)F)c(F)c3)nc2C)ccc1OCC(=O)O at 10 µM", "COLO 800": 68.1, "WM3619": 37.9}
{"partner": "CO[C@@H]1[C@H](N(C)C(=O)c2ccccc2)C[C@H]2O[C@]1(C)n1c3ccccc3c3c4c(c5c6ccccc6n2c5c31)C(=O)NC4 at 0.4 µM", "COLO 800": 25.3, "WM3619": 30.8}
{"partner": "OCCn1cc(-c2cnc3nnn(Cc4ccc5ncccc5c4)c3n2)cn1 at 5 µM", "COLO 800": 69.4, "WM3619": 23.9}
{"partner": "CNC(=O)c1cc(Oc2ccc(NC(=O)Nc3ccc(Cl)c(C(F)(F)F)c3)cc2)ccn1 at 2 µM", "COLO 800": 91.1, "WM3619": 48.5}
{"partner": "Cn1cc(C2=C(c3cn(C4CCN(Cc5ccccn5)CC4)c4ccccc34)C(=O)NC2=O)c2ccccc21 at 4 µM", "COLO 800": 110, "WM3619": 58.9}
{"partner": "CN(C)S(=O)(=O)c1ccc2c(c1)/C(=C/c1cc3c([nH]1)CCCC3)C(=O)N2 at 2 µM", "COLO 800": 64.1, "WM3619": 44.4}
{"partner": "CC(C)(C)c1cnc(CSc2cnc(NC(=O)C3CCNCC3)s2)o1 at 0.05 µM", "COLO 800": 82.3, "WM3619": 40.9}
{"partner": "O=C(Nc1cc(C(F)(F)F)cc(C(F)(F)F)c1)c1cc(Cl)ccc1O at 0.08 µM", "COLO 800": 77.8, "WM3619": 58.5}
{"partner": "Nc1ccn([C@@H]2O[C@H](CO)[C@@H](O)C2(F)F)c(=O)n1 at 0.002 µM", "COLO 800": 10.6, "WM3619": 46.1}
{"partner": "Cc1ccc(NC(=O)c2cccc(N(C)C)c2)cc1NC(=O)c1ccc(O)cc1 at 10 µM", "COLO 800": 82.2, "WM3619": 41.9}
{"partner": "O=C(Nc1cccc(Cl)c1)Nc1ncc(CCNc2ncnc3ccsc23)s1 at 0.004 µM", "COLO 800": 28.8, "WM3619": 43.6}
{"partner": "COc1ccc(COc2ccc(Cc3cnc(N)nc3N)cc2OC)cc1 at 5 µM", "COLO 800": 76.0, "WM3619": 32.0}
{"partner": "O=C(Oc1ccc([N+](=O)[O-])cc1)N1CCC(C(O)(c2ccc3c(c2)OCO3)c2ccc3c(c2)OCO3)CC1 at 5 µM", "COLO 800": 97.3, "WM3619": 32.2}
{"partner": "Cn1cncc1[C@@](N)(c1ccc(Cl)cc1)c1ccc2c(c1)c(-c1cccc(Cl)c1)cc(=O)n2C at 0.05 µM", "COLO 800": 46.2, "WM3619": 32.1}
{"partner": "O=C(O)C(=O)Nc1sc2c(c1C(=O)O)CCNC2 at 8.33 µM", "COLO 800": 55.2, "WM3619": 39.1}
{"partner": "O=C(/C=C/c1cccnc1)NCCCCC1CCN(C(=O)c2ccccc2)CC1 at 0.05 µM", "COLO 800": 18.6, "WM3619": 34.3}
{"partner": "O=C(O)c1ccc(-c2c[nH]c3ncc(-c4ccccc4)cc23)cc1C1CCCC1 at 0.8 µM", "COLO 800": 55.1, "WM3619": 60.4}
{"partner": "Oc1cc(-c2nc(-c3ccccc3)[nH]c2-c2ccncc2)ccc1Cl at 1 µM", "COLO 800": 62.5, "WM3619": 46.6}
{"partner": "COc1ccc(C2=N[C@@H](c3ccc(Cl)cc3)[C@@H](c3ccc(Cl)cc3)N2C(=O)N2CCNC(=O)C2)c(OC(C)C)c1 at 0.5 µM", "COLO 800": 71.1, "WM3619": 50.7}

Repeated from the top, 2 entries:

| Partner | COLO 800 | WM3619 |
|---|---|---|
| CCCCCCCCCCCC1=C(O)C(=O)C=C(O)C1=O at 6 µM | 68.7 | 39.3 |
| Cc1nc(Nc2ncc(C(=O)Nc3c(C)cccc3Cl)s2)cc(N2CCN(CCO)CC2)n1 at 0.02 µM | 60.9 | 47.0 |

Values as published with doi:10.1371/journal.pone.0140310, rounded.